Some of the results follow. Single values are uncertain here, since repeats match poorly.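 Free-swimming zebrafish larvae were assessed for O-bend response probability to dark flashes (naive: first five; training: remaining flashes across four 60-flash blocks; test: later 60-flash block) and for OMR turning toward alternating leftward/rightward LED motion. Six treated larvae were compared against sixty 0.1% DMSO controls; hits required |SSMD|≥2.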
These molecules were tested on Danio rerio larvae (5 dpf, TLF) (assay: OMR-Perf (SSMD vs DMSO vehicle); higher = higher than vehicle (e.g. higher dark-flash O-bend response probability, or better optomotor performance)). Conditions: 10 µM; pre-incubation: 30-90 min.

| Structure (SMILES) | OMR-Perf |
| --- | --- |
| O=C1NC(=O)C(c2ccccc2)(c2ccccc2)N1 [Phenytoin] | -0.204 |
| CCn1cc(C(=O)O)c(=O)c2cc(F)c(N3CCNCC3)nc21 [Enoxacin] | -0.196 |
| OC(Cn1cncn1)(Cn1cncn1)c1ccc(F)cc1F [Fluconazole] | 0.188 |
| CC(C)NCC(O)COc1cccc2ccccc12.Cl (centres undefined) [Propranolol HCl] | 0.0374 |
| Cc1ccc(S(=O)(=O)Cc2nc(-c3ccc(C(=O)NCc4cccnc4)cc3)oc2C)cc1 | 0.22 |
| CC[C@H]1OC(=O)[C@H](C)[C@H](O[C@@H]2C[C@@](C)(OC)[C@@H](O)[C@H](C)O2)[C@H](C)[C@@H](O[C@@H]2O[C@H](C)C[C@H](N(C)C)[C@@H]2O)[C@](C)(OC)C[C@@H](C)C(=O)[C@H](C)[C@@H](O)[C@]1(C)O [Clarithromycin] | 0.0322 |
| Nc1nc(N)c(N=O)c(OCC2CCCCC2)n1 | -0.242 |
| c1ccc(NCc2ccc(CNc3ccccn3)cc2)nc1 | -0.558 |
| NC(=O)c1ccc(I)c([N+](=O)[O-])c1 [Iniparib (BSI-201)] | -0.538 |
| CC1(C)O[C@@H]2C[C@H]3[C@@H]4CCC5=CC(=O)C=C[C@]5(C)[C@@H]4[C@H](O)C[C@]3(C)[C@@]2(C(=O)CO)O1 [Desonide] | 0.799 |
| O=c1oc2cc(O)ccc2s1 [Tioxolone] | -0.978 |
| O=P(O)(O)C(O)(Cc1cccnc1)P(=O)(O)O [Risedronic acid (Actonel)] | -0.444 |

2 consecutive entries already listed, for reference:

| Structure (SMILES) | OMR-Perf |
| --- | --- |
| OC(Cn1cncn1)(Cn1cncn1)c1ccc(F)cc1F [Fluconazole] | 0.188 |
| CC(C)NCC(O)COc1cccc2ccccc12.Cl (centres undefined) [Propranolol HCl] | 0.0374 |

These molecules were tested on Danio rerio larvae (5 dpf, TLF) (assay: Prob-Test (SSMD vs DMSO vehicle); higher = higher than vehicle (e.g. higher dark-flash O-bend response probability, or better optomotor performance)). Conditions: 10 µM; pre-incubation: 30-90 min.

| Structure (SMILES) | Prob-Test |
| --- | --- |
| COc1ccc2cc1Oc1ccc(cc1)C[C@H]1c3cc(c(OC)cc3CCN1C)Oc1c(OC)c(OC)cc3c1[C@@H](C2)N(C)CC3 [Tetrandrine] | 0.327 |
| CCCCCCCN(CC)CCCC(O)c1ccc(NS(C)(=O)=O)cc1.CCCCCCCN(CC)CCCC(O)c1ccc(NS(C)(=O)=O)cc1.O=C(O)/C=C/C(=O)O (centres undefined) [Ibutilide Fumarate] | -0.0192 |
| CCCc1cc(C(N)=S)ccn1 [Protionamide] | -0.391 |
| Cc1cc(Nc2ncnc3ccc(-c4ccc(CNCCS(C)(=O)=O)o4)cc23)ccc1Oc1ccn2ncnc2c1 [HER2-Inhibitor-1] | 0.404 |
| C1(C[C@@H]2C[C@@H](C[C@@H]1N2C)OC(C3=CC=CC=C3)C4=CC=CC=C4).CS(=O)(=O)O (some centres undefined) [Benztropine mesylate] | 0.742 |
| CC(=O)Oc1cc(C(F)(F)F)ccc1C(=O)O [Triflusal] | -0.0728 |
| Nc1nc(NCCNc2ncc(-n3ccnc3)c(-c3ccc(Cl)cc3Cl)n2)ccc1[N+](=O)[O-] | -0.452 |
| COc1cc(Nc2nc3ccccc3nc2NS(=O)(=O)c2ccc(NC(=O)c3ccc(C)c(OC)c3)cc2)cc(OC)c1 | 0.145 |
| COc1ccc(S(=O)(=O)Nc2cccnc2Nc2ccc(O)cc2)cc1 | -0.124 |
| CC[C@]1(O)C[C@@H]2C[N@](CCc3c([nH]c4ccccc34)[C@@](C(=O)OC)(c3cc4c(cc3OC)N(C)[C@@H]3C45CCN4CC=C[C@](CC)([C@H]45)[C@H](OC(C)=O)[C@]3(O)C(=O)OC)C2)C1 (some centres undefined) [Vinblastine] | -0.313 |
| Nc1nc(=O)c2ncn(CCC(CO)CO)c2[nH]1 [Penciclovir] | -0.0523 |
| O=C1c2c(O)cc(O)cc2O[C@H](c2ccc(O)c(O)c2)[C@H]1O [Taxifolin (Dihydroquercetin)] | -0.506 |
| C#C[C@@]1(O)CC[C@H]2[C@@H]3CCc4cc(OC)ccc4[C@@H]3CC[C@@]21C [Mestranol] | -1.83 |
| Cc1[nH]c(/C=C2\C(=O)Nc3ccc(S(=O)(=O)Cc4c(Cl)cccc4Cl)cc32)c(C)c1C(=O)N1CCC[C@@H]1CN1CCCC1 | 0.476 |
| Cl.O=C(OCC(O)CO)c1ccccc1Nc1ccnc2cc(Cl)ccc12 (centres undefined) [Glafenine HCl] | -1.12 |
| Cl.O=C1NCC2(CCN(CCc3ccccc3)CC2)O1 [Fenspiride HCl] | -0.785 |
| O=C(N/N=C/c1ccc([N+](=O)[O-])o1)c1ccc(O)cc1 [Nifuroxazide] | 0.092 |

Reference: the supplement of paper PMC10727501
